{"source": "patent US10588835B2", "about": "“Oral care product and methods of use and manufacture thereof” (Colgate-Palmolive Company, priority 2016, dated 2020)", "assay": "Diffusion NMR and dynamic light scattering of CPC solutions", "type": "physicochemical", "conditions": "calculated using equation I", "note": "At least one compound was matched to its structure with a doubt left."}
{"smiles": "CCCCCCCCCCCCCCCC[n+]1ccccc1", "note": "[CPC, cetylpyridinium chloride]", "values": [{"measurement": "CPC monomer level", "setting": "CPC solution with (anion not given)", "result": 16.3, "unit": "molar %"}, {"measurement": "CPC monomer percentage", "setting": "with H2PO4^−", "result": 14, "unit": "molar %"}]}
